Among the data in PMC3558359 are binding values, retold here.

Amino acid sequences for entries named in this document (tags omitted). A change or cut given only in a name is not applied to a line headed by its entry.
UniProt P05556: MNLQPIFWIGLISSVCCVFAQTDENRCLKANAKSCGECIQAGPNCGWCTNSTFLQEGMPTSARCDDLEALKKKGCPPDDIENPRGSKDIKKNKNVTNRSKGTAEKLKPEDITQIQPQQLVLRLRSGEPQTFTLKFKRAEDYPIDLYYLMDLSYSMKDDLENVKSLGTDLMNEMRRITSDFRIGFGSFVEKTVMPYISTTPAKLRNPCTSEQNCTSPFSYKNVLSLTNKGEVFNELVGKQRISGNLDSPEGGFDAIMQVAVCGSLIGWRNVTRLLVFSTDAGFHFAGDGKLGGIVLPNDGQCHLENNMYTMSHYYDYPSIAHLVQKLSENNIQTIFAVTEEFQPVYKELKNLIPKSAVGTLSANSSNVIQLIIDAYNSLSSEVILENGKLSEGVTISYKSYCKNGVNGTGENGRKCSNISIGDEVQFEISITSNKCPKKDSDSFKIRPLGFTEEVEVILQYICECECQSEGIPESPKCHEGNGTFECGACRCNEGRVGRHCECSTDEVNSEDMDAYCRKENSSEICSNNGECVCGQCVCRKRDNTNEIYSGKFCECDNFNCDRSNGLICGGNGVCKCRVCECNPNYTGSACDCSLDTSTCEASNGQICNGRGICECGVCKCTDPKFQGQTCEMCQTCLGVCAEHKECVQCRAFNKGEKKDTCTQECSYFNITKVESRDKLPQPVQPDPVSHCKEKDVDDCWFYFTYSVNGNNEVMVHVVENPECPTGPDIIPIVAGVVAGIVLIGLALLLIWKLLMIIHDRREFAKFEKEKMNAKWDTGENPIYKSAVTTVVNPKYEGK

The assay deals with Phosphatase of regenerating liver-3 (PRL-3), endogenous (human (endogenous in BGC823 and SW480)) (UniProt O75365). Put plainly: co-IP; lysates (500 μg) of BGC823 or SW480 cells precipitated with 1 μg PRL-3 monoclonal antibody or pre-immune mouse IgG on protein G-Sepharose, blot for integrin β1; lysis buffer 50 mM HEPES pH 8.0, 150 mM NaCl, 1% Triton X-100, 4°C; also BGC823 cells after integrin α1 siRNA or control siRNA (more integrin β1 precipitated upon integrin α1 silencing).

No constants are given. Whether binding was seen depends on the method and setting. Binding seen in cells or lysates may run through a third protein. Some entries that bind do so weakly or less than the wild type.

Regarding “integrin β1, endogenous (from UniProt P05556 21-798) (receptor)”, the binding result is reported as “binds”.
